Measured values taken from EP0348399B1, “SORBIN AND PEPTIDE DERIVATIVES WHICH INCREASE ABORPTION BY THE MUCOUS MEMBRANES” (INSTITUT NATIONAL DE LA SANTE ET DE LA RECHERCHE MEDICALE …, priority 1988, dated 1992).
At least one peptide structure holds a part that was inferred or is arguable (an end, a ring closure or a residue).

What was measured:
[1] = test system: rat; assay: Water and electrolyte movements in ligated intestinal loops of the anaesthetised rat, peptides given by intravenous infusion; type: in vivo; details: rat duodenal loop, i.v. infusion, dose 8000 pmol/100g, 1 h contact; controls = 0; (-) absorption, (+) secretion; mean, groups of 8 or more
Experimental: Chez le rat privé d'aliment depuis 45 heures mais recevant de l'eau à volonté, une anesthésie est assurée par le pentobarbital sodique, un cathéter est placé sur une jugulaire, trois anses duodénale, jéjunale et iléale sont constituées entre deux ligatures. Un ml de solution test contenant 70 mM de NaCl, 5,2 mM de KCl, […] de CaCl₂, 10 mM de CO₃Na ET 136 mM de mannitol est instillé dans chaque anse, le PEG 4000 marqué au ³H est utilisé comme marqueur non absorbable, le ²²Na ou le ³⁶Cl comme marqueurs des flux bidirectionnels de sodium ou de chlore. La sorbine ou les peptides de synthèse sont administrés par voie veineuse dans du NaCl à 0,9%, à un débit de 3 ml/h. Après une heure de contact, le liquide restant dans la lumière de l'anse est collecté, le volume et les concentrations de Na, Ca, K, Cl et HCO₃ ainsi que la radioactivité liée au tritium, au chlore ou au sodium sont mesurés.
L'absorption est indiquée par un signe (-), la sécrétion par un signe (+). les résultats concernent des groupes de 8 animaux ou plus M ± SEM ^. P<0.05 ^..P<0.01

[2] = test system: contraction intestinale stimulée électriquement; assay: Electrically stimulated intestinal contraction; details: result in words

CSCC[C@H](NC(=O)[C@H](Cc1ccccc1)NC(=O)CNC(=O)CNC(=O)[C@@H](N)Cc1ccc(O)cc1)C(N)=O [METENKEPHALIN-AMIDE, métenképhalinamide, reference compound]
Cl [1]: -43,0^. µeq | Eau [1]: -0,31^. ml | Na [1]: -49,7^. µeq | contraction intestinale stimulée électriquement [2]: inhibition de la contraction intestinale stimulée électriquement
